Reference: PMC10354078, “Conformational restriction shapes the inhibition of a multidrug efflux adaptor protein” (Nature Communications, 2023)
These are yes or no findings as the source states them, for the method shown.

Tests used:
[1] = target: AcrA^S (soluble AcrA lacking signal peptide and lipidation) (E. coli) (UniProt P0AE06); experiment: native MS; pH 7.4, 100 mM ammonium acetate; AcrA^L with 0.03% DDM; both purified
[2] = target: AcrA^S (soluble AcrA lacking signal peptide and lipidation) (E. coli) (UniProt P0AE06); experiment: native MS; pH 6.0, 100 mM ammonium acetate; AcrA^L with 0.03% DDM (2x CMC); Synapt G2-Si or Q-Exactive UHMR; both purified

“AcrA^S (soluble AcrA lacking signal peptide and lipidation) (from UniProt P0AE06 25-397) (domain or fragment)” was tested, and the binding [1] was “no binding” and the binding [2] was “no binding”.
